{"source": "PubChem BioAssay AID504648", "about": "(National Center for Advancing Translational Sciences (NCATS), 2011)", "note": "About 610 (0.16%) of roughly 390,000 compounds were called active. This list was built around the results that the source calls inconclusive (neither active nor inactive); the mix of calls is not that of the screen. The call rests on the fitted dose curve; in most records, active means well fitted inhibition curve with a large enough effect; inconclusive means small, poorly fitted or top-dose-only effect, or effect the other way, or another doubt; inactive means no such curve, though single readings can be large or run the other way. A potency beside an inconclusive call is a rough fit, not a confirmed value. On the % scale 0 is the no-effect control and ±100 the full control effect; potency means the concentration at half of the fitted maximal effect.", "data": [{"assay": "Nrf2 qHTS screen for inhibitors: counterscreen for cytotoxicity", "details": "A549 ARE-Fluc cells, CellTiter-Fluor viability, 18-24 h; activity change, negative = cytotoxicity: at 46 µM (top of the series)", "procedure,_shortened": "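A549 ARE_Fluc cells in 5% FBS OPTI-MEM were exposed to compounds in concentration-response for 18-24 h at 37 deg C. Viability was read by CellTiter-Fluor fluorescence (Ex 405/Em 525) after 30 min, before the luciferase read.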", "values": [{"smiles": "O=S1(=O)CCC(NC(=S)SCCOc2ccccc2)C1", "note": "(stereo not drawn)", "Potency": "inconclusive: 29.1 µM [activator, partial curve, poor fit]"}, {"smiles": "Clc1ccc(-c2noc(CSc3nnc(-c4ccncc4)n3-c3ccccc3)n2)cc1", "Potency": "inconclusive: 29.1 µM [falling, single point]"}, {"smiles": "CCOc1cc(C(=O)Nc2c(C)ccc3nsnc23)cc(OCC)c1OCC", "Potency": "inconclusive: 29.1 µM [activator, partial curve, poor fit]"}, {"smiles": "CCOC(=O)CCN(Cc1cccs1)S(=O)(=O)c1ccc(Cl)cc1", "Potency": "inconclusive: 25.9 µM [activator, partial curve, poor fit]"}, {"smiles": "CCC1=Nc2cc(C(=O)N3CCC(C)CC3)ccc2Sc2ccc(C)cc21", "Potency": "inconclusive: 32.6 µM [falling, partial curve, poor fit]"}, {"smiles": "O=c1cc(O)c2c(=O)n(-c3ccccc3)c3c(c2o1)CCCCC3", "Potency": "inconclusive: 29.1 µM [falling, partial curve, poor fit]"}, {"smiles": "Cc1cccc(CNC(=O)C2CCN(S(=O)(=O)c3cccc4nonc34)CC2)c1", "activity change, negative = cytotoxicity": "inactive: -1.28%"}, {"smiles": "CCCCN(CC)CCNC(=O)c1nn(-c2ccc(OC)cc2)c(=O)c2c1c1ccccc1n2C", "Potency": "inconclusive: 29.1 µM [activator, partial curve, poor fit]"}, {"smiles": "CCC(=O)N1N=C(c2cccs2)CC1c1ccc(OC)cc1", "note": "(stereo not drawn)", "activity change, negative = cytotoxicity": "inactive: 0.755%"}, {"smiles": "CC(=O)NN1C(=O)/C(=C/c2ccc(Br)o2)SC1=S", "Potency": "inconclusive: 18.4 µM [falling, partial curve, poor fit]"}, {"smiles": "Cn1c(CCCOc2ccc(Cl)cc2Cl)nnc1SCC(=O)Nc1cccc(F)c1", "activity change, negative = cytotoxicity": "inactive: -8.95%"}, {"smiles": "O=C(N/N=C/c1ccco1)c1cc(-c2cccc(Br)c2)nc2ccccc12", "Potency": "inconclusive: 29.1 µM [falling, partial curve, poor fit]"}, {"smiles": "COc1ccc(NC(=O)CSc2nc3sc(C)cc3c(=O)n2C)cc1", "activity change, negative = cytotoxicity": "inactive: -16.1%"}, {"smiles": "O=C1CC(C(=O)Nc2nccs2)C(c2ccccc2)O1", "note": "(stereo not drawn)", "Potency": "inconclusive: 29.1 µM [falling, single point]"}, {"smiles": "Nc1cc2c(cc1[N+](=O)[O-])OCCOCCOCCO2", "Potency": "inconclusive: 13 µM [falling, partial curve]"}, {"smiles": "O=C(NNc1nc(-c2ccc(Cl)cc2)cs1)c1ccco1", "Potency": "inconclusive: 29.1 µM [falling, single point]"}, {"smiles": "C=CC[C@H](CC(=O)N(CCO)Cc1ccccc1)C(=O)N[C@@H](COC(=O)[C@@H](CC=C)Cc1ccc(F)cc1)Cc1ccccc1", "Potency": "inconclusive: 29.1 µM [falling, single point]"}, {"smiles": "Cc1cccc(N2CCN(CCCNC(=O)C3CCCN(c4ncnc5c4nc4n5CCCCC4)C3)CC2C)c1", "note": "(stereo not drawn)", "Potency": "inconclusive: 32.6 µM [falling, single point]"}, {"smiles": "CCOC(=O)C1CCN(C(=O)Cn2c(=O)c3cccn3c3cccnc32)CC1", "Potency": "inconclusive: 20.6 µM [falling, partial curve, poor fit]"}, {"smiles": "COc1ccc2c(CN(C)c3ccccc3)cc(=O)oc2c1", "activity change, negative = cytotoxicity": "inactive: 3.23%"}, {"smiles": "CCC(Sc1nc2ccccc2c2nc(CCn3cncc3C)nn12)C(=O)Nc1cccc(OC)c1", "note": "(stereo not drawn)", "Potency": "inconclusive: 29.1 µM [falling, single point]"}, {"smiles": "CC1(C)CC(=O)C2=C(C1)NC1=C(C(=O)c3ccccc31)C2c1ccccc1", "note": "(stereo not drawn)", "Potency": "inconclusive: 25.9 µM [falling, partial curve, poor fit]"}, {"smiles": "COC(=O)c1ccn(C(=O)c2ccc(Cl)cc2)n1", "activity change, negative = cytotoxicity": "inactive: 21.2%"}, {"smiles": "COc1ccccc1OCCn1c(=S)[nH]c2ccccc21", "activity change, negative = cytotoxicity": "inactive: -2.33%"}, {"smiles": "CC(=O)c1c(CC(=O)O)[nH]n(-c2nc3ccccc3s2)c1=O", "activity change, negative = cytotoxicity": "inactive: -0.485%"}, {"smiles": "O=C(NC1CCCCC1)C(c1ccccn1)N(C(=O)Cc1cccs1)c1ccc(Cl)cc1", "note": "(stereo not drawn)", "Potency": "inconclusive: 13 µM [falling, single point]"}, {"smiles": "COc1ccc(N2CCN(C(CNC(=O)C(=O)NCCC3=CCCCC3)c3ccco3)CC2)cc1", "note": "(stereo not drawn)", "activity change, negative = cytotoxicity": "inactive: -2.74%"}, {"smiles": "CCN(CC)c1ccc(NC(=O)/C=C/c2cc(Br)ccc2OC)cc1", "Potency": "inconclusive: 16.4 µM [falling, single point]"}, {"smiles": "C=C(C)COc1ccc(-c2[nH]ncc2-c2ccccc2OC)c(O)c1", "Potency": "inconclusive: 25.9 µM [falling, single point]"}, {"smiles": "COc1cc2ccccc2cc1C(=O)Nc1ccc(Br)cn1", "activity change, negative = cytotoxicity": "inactive: 8.42%"}, {"smiles": "Cc1c(C(=O)N(Cc2ccc(N(C)C)cc2)C2CCS(=O)(=O)C2)oc2ccccc12", "note": "(stereo not drawn)", "Potency": "inconclusive: 18.4 µM [falling, partial curve, poor fit]"}, {"smiles": "COc1ccc(CCNC(=O)c2ccc3c(c2)CCN3S(C)(=O)=O)cc1", "activity change, negative = cytotoxicity": "inactive: 3.21%"}, {"smiles": "Cc1nn(C(C)C(=O)NC2CCCCC2)c(=O)c2c1sc1ccccc12", "note": "(stereo not drawn)", "Potency": "inconclusive: 23.1 µM [falling, single point]"}, {"smiles": "Cc1ccc(-c2nnc(Nc3ccc(Br)cc3)c3ccccc23)cc1S(=O)(=O)N1CCN(C)CC1", "Potency": "inconclusive: 29.1 µM [falling, single point]"}, {"smiles": "COc1ccc(CCNC(=O)Cc2c(C)c3c(cc(C)c4c(C)coc43)oc2=O)cc1OC", "activity change, negative = cytotoxicity": "inactive: -2.36%"}, {"smiles": "NCCCn1c(C(=O)c2cc(Cl)c(N)c(Cl)c2)c2ccc([N+](=O)[O-])cc2[n+]1[O-]", "Potency": "active: 18.4 µM"}, {"smiles": "COc1cc([N+](=O)[O-])cc(/C=N/NC(=O)c2ccc(C)nc2)c1O", "Potency": "inconclusive: 18.4 µM [falling, partial curve, poor fit]"}, {"smiles": "Cc1ccc(Nc2ccc([N+](=O)[O-])nc2[N+](=O)[O-])cc1", "Potency": "inconclusive: 16.4 µM [falling, partial curve]"}, {"smiles": "COc1ccc(Br)cc1CN(C)C(=O)CNC(=O)c1ccc2ccccc2c1", "Potency": "inconclusive: 29.1 µM [falling, single point]"}, {"smiles": "Cc1ccccc1NC(=O)Cn1c(=O)n(CCc2ccccc2)c(=O)c2sc3ccccc3c21", "activity change, negative = cytotoxicity": "inactive: 3.43%"}, {"smiles": "CC(C)S(=O)(=O)c1oc(-c2ccc(F)cc2)nc1S(=O)(=O)c1ccccc1", "Potency": "inconclusive: 29.1 µM [falling, single point]"}, {"smiles": "CCN(CCNC(=O)CS(=O)(=O)Cc1nc(-c2cccc(OC)c2)oc1C)c1ccccc1", "activity change, negative = cytotoxicity": "inactive: -18.7%"}, {"smiles": "COc1ccc(CCNC(=O)CCCCn2c(=O)c3ccccc3n(CC(=O)Nc3ccc(C)cc3C)c2=O)cc1OC", "activity change, negative = cytotoxicity": "inactive: -11.5%"}, {"smiles": "CN1/C(=C\\P(=O)(N(C)C)N(C)C)C(C)(C)c2ccccc21", "Potency": "inconclusive: 9.2 µM [falling, partial curve, poor fit]"}, {"smiles": "COc1cc(/C=C2\\SC(=O)N(Cc3ccc(Cl)cc3)C2=O)cc([N+](=O)[O-])c1O", "Potency": "active: 14.6 µM"}, {"smiles": "CC(=O)OCC(=O)[C@@]1(O)CC[C@H]2[C@@H]3CCC4=CC(=O)C=C[C@]4(C)[C@@]3(Cl)[C@@H](Cl)C[C@@]21C", "Potency": "inconclusive: 29.1 µM [falling, single point]"}, {"smiles": "CN1N=C(c2ccc(F)c(F)c2)CSC1=NCc1ccccc1", "Potency": "inconclusive: 29.1 µM [falling, single point]"}, {"smiles": "CCCn1c(N2CCN(CC(=O)c3c(C)n(C)c4ccccc34)CC2)nc2c1c(=O)[nH]c(=O)n2C", "Potency": "inconclusive: 23.1 µM [falling, partial curve, poor fit]"}, {"smiles": "Cc1nnc(N2CCCC(C(=O)Nc3cccc(C(F)(F)F)c3)C2)c2nn(-c3ccccc3)c(C)c12", "note": "(stereo not drawn)", "Potency": "inconclusive: 29.1 µM [falling, single point]"}, {"smiles": "O=C1CS(=O)(=O)N(Cc2ccccc2F)c2ccc(Br)cc21", "activity change, negative = cytotoxicity": "inactive: -7.65%"}, {"smiles": "O=C(N/N=C\\c1cn[nH]c1-c1ccc(Cl)cc1)c1cccs1", "Potency": "inconclusive: 1.84 µM [activator, partial curve, poor fit]"}, {"smiles": "O=C(CCN1C(=O)/C(=C/c2ccccc2Cl)SC1=S)N1CCOCC1", "Potency": "inconclusive: 29.1 µM [falling, single point]"}, {"smiles": "CC(NC(=O)c1ccc(NC(=O)c2nsc3ccccc23)cc1)c1ccccc1", "note": "(stereo not drawn)", "Potency": "inconclusive: 32.6 µM [activator, partial curve, poor fit]"}, {"smiles": "O=C(Nc1nc2ccccc2n1CCN1CCOCC1)c1ccc(Cn2cc([N+](=O)[O-])cn2)o1", "activity change, negative = cytotoxicity": "inactive: 10.3%"}, {"smiles": "Cn1ccnc1Sc1cc(NCCCO)c([N+](=O)[O-])c2nonc12", "Potency": "inconclusive: 20.6 µM [falling, partial curve, poor fit]"}, {"smiles": "COc1ccc(/C=N/NC(=O)c2ccc(F)cc2)cc1CN1CCc2cc(OC)c(OC)cc2C1C", "note": "(stereo not drawn)", "Potency": "inconclusive: 20.6 µM [falling, partial curve, poor fit]"}, {"smiles": "Cc1cccc(Nc2nnc(SC/C(O)=C(\\C#N)c3nc4ccccc4[nH]3)s2)c1", "Potency": "inconclusive: 18.4 µM [falling, single point]"}, {"smiles": "CCn1c(SCC(=O)N2CCCCCC2)nc2c(c1=O)SCC2", "Potency": "inconclusive: 13 µM [falling, partial curve, poor fit]"}, {"smiles": "Cc1ccc(C)c(Oc2cc(NC(=O)CCCn3nc(C)c([N+](=O)[O-])c3C)cc([N+](=O)[O-])c2)c1", "Potency": "inconclusive: 29.1 µM [falling, single point]"}, {"smiles": "CCN(CC)S(=O)(=O)c1ccc(NC(=O)c2ccc3c(=O)n4c(nc3c2)CCCCC4)cc1", "Potency": "inconclusive: 29.1 µM [falling, partial curve, poor fit]"}, {"smiles": "CCCC(=O)NC(c1ccco1)c1cc([N+](=O)[O-])c2cccnc2c1O", "note": "(stereo not drawn)", "Potency": "inconclusive: 25.9 µM [falling, single point]"}, {"smiles": "O=C(Nc1c(Cl)cc([N+](=O)[O-])cc1Cl)c1cc(Cl)cc(Cl)c1O", "Potency": "inconclusive: 20.6 µM [falling, single point]"}, {"smiles": "COc1cc(/C=N/NS(=O)(=O)c2ccc(C)c([N+](=O)[O-])c2)cc([N+](=O)[O-])c1O", "Potency": "inconclusive: 23.1 µM [falling, single point]"}]}]}
